{"source": "patent US20110245173A1", "about": "“Long-Acting GLP-1 Derivatives, and Methods of Treating Cardiac Dysfunction” (priority 2008, published 2011)", "origin": "cited, not measured here", "tested_on": "peripheral tissues", "conditions": "of the activity of the native molecule, not dependent upon insulin release; cited from earlier work", "note": "At least one peptide structure holds a part that was inferred or is arguable (an end, a ring closure or a residue).", "data": [{"smiles": "CC[C@H](C)[C@H](NC(=O)[C@H](Cc1ccccc1)NC(=O)[C@H](CCC(=O)O)NC(=O)[C@H](CCCCN)NC(=O)[C@H](C)NC(=O)[C@H](C)NC(=O)[C@H](CCC(N)=O)NC(=O)CNC(=O)[C@H](CCC(=O)O)NC(=O)[C@H](CC(C)C)NC(=O)[C@H](Cc1ccc(O)cc1)NC(=O)[C@H](CO)NC(=O)[C@H](CO)NC(=O)[C@@H](NC(=O)[C@H](CC(=O)O)NC(=O)[C@H](CO)NC(=O)[C@@H](NC(=O)[C@H](Cc1ccccc1)NC(=O)[C@@H](NC(=O)CNC(=O)[C@@H](N)CCC(=O)O)[C@@H](C)O)[C@@H](C)O)C(C)C)C(=O)N[C@@H](C)C(=O)N[C@@H](Cc1c[nH]c2ccccc12)C(=O)N[C@@H](CC(C)C)C(=O)N[C@H](C(=O)N[C@@H](CCCCN)C(=O)NCC(=O)N[C@@H](CCCNC(=N)N)C(N)=O)C(C)C", "note": "[DGS70]", "values": [{"measurement": "glucose-lowering effects, activity relative to the native molecule", "result": "about 20%"}]}]}
